# Some of the results follow.
# Assays:
# Assay in all cases: glycan array binding signal (z-score within array); higher = stronger binding
# Conditions in all cases: glycan notation: IUPAC condensed, linker removed
# [1] = biological target: Gal(b1-4)GlcNAc(b1-3)Gal(b1-4)GlcNAc(b1-3)Gal(b1-4)GlcNAc(b1-3)Gal(b1-4)GlcNAc(b1-2)Man(a1-3)[Gal(b1-4)GlcNAc(b1-3)Gal(b1-4)GlcNAc(b1-3)Gal(b1-4)GlcNAc(b1-3)Gal(b1-4)GlcNAc(b1-2)Man(a1-6)]Man(b1-4)GlcNAc(b1-4)GlcNAc
# Procedure, shortened: (§1)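 Glycan array data were curated from 3228 arrays in the Consortium for Functional Glycomics database and kept only where the protein sequence was available. Glycan names were converted to IUPAC-condensed notation, and columns mapping to the same glycan were averaged. The binding signal is a within-array Z-score, averaged across arrays of the same protein sequence at different concentrations or buffers and across linkers. Negative Z-scores can be read as non-binding.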
# [2] = biological target: Gal(b1-4)GlcNAc(b1-3)Gal(b1-4)GlcNAc(b1-3)Gal(b1-4)GlcNAc(b1-3)Gal(b1-4)GlcNAc(b1-2)Man(a1-3)[Gal(b1-4)GlcNAc(b1-3)Gal(b1-4)GlcNAc(b1-3)Gal(b1-4)GlcNAc(b1-3)Gal(b1-4)GlcNAc(b1-2)Man(a1-6)]Man(b1-4)GlcNAc(b1-4)[Fuc(a1-6)]GlcNAc
# Procedure, shortened: as §1
# [3] = biological target: Gal(b1-4)GlcNAc(b1-3)Gal(b1-4)GlcNAc(b1-3)Gal(b1-4)GlcNAc(b1-3)Gal(b1-4)GlcNAc(b1-2)[Gal(b1-4)GlcNAc(b1-3)Gal(b1-4)GlcNAc(b1-3)Gal(b1-4)GlcNAc(b1-3)Gal(b1-4)GlcNAc(b1-6)]Man(a1-6)[Gal(b1-4)GlcNAc(b1-3)Gal(b1-4)GlcNAc(b1-3)Gal(b1-4)GlcNAc(b1-3)Gal(b1-4)GlcNAc(b1-2)Man(a1-3)]Man(b1-4)GlcNAc(b1-4)[Fuc(a1-6)]GlcNAc
# Procedure, shortened: as §1
# [4] = biological target: Gal(b1-4)GlcNAc(b1-3)Gal(b1-4)GlcNAc(b1-3)Gal(b1-4)GlcNAc(b1-3)Gal(b1-4)GlcNAc(b1-3)Gal(b1-4)GlcNAc(b1-2)Man(a1-3)[Gal(b1-4)GlcNAc(b1-3)Gal(b1-4)GlcNAc(b1-3)Gal(b1-4)GlcNAc(b1-3)Gal(b1-4)GlcNAc(b1-3)Gal(b1-4)GlcNAc(b1-2)Man(a1-6)]Man(b1-4)GlcNAc(b1-4)GlcNAc
# Procedure, shortened: as §1
# [5] = biological target: Gal(b1-4)GlcNAc(b1-3)Gal(b1-4)GlcNAc(b1-3)Gal(b1-4)GlcNAc(b1-3)Gal(b1-4)GlcNAc(b1-3)Gal(b1-4)GlcNAc(b1-2)Man(a1-3)[Gal(b1-4)GlcNAc(b1-3)Gal(b1-4)GlcNAc(b1-3)Gal(b1-4)GlcNAc(b1-3)Gal(b1-4)GlcNAc(b1-3)Gal(b1-4)GlcNAc(b1-2)Man(a1-6)]Man(b1-4)GlcNAc(b1-4)[Fuc(a1-6)]GlcNAc
# Procedure, shortened: as §1
# [6] = biological target: Gal(b1-4)GlcNAc(b1-3)Gal(b1-4)GlcNAc(b1-3)Gal(b1-4)GlcNAc(b1-3)Gal(b1-4)GlcNAc(b1-3)Gal(b1-4)GlcNAc(b1-2)[Gal(b1-4)GlcNAc(b1-3)Gal(b1-4)GlcNAc(b1-3)Gal(b1-4)GlcNAc(b1-3)Gal(b1-4)GlcNAc(b1-3)Gal(b1-4)GlcNAc(b1-6)]Man(a1-6)[Gal(b1-4)GlcNAc(b1-3)Gal(b1-4)GlcNAc(b1-3)Gal(b1-4)GlcNAc(b1-3)Gal(b1-4)GlcNAc(b1-3)Gal(b1-4)GlcNAc(b1-2)Man(a1-3)]Man(b1-4)GlcNAc(b1-4)[Fuc(a1-6)]GlcNAc
# Procedure, shortened: as §1
# [7] = biological target: Gal(b1-4)GlcNAc(b1-3)Gal(b1-4)GlcNAc(b1-3)Gal(b1-4)GlcNAc(b1-3)Gal(b1-4)GlcNAc(b1-3)Gal(b1-4)GlcNAc(b1-3)Gal(b1-4)GlcNAc(b1-2)Man(a1-3)[Gal(b1-4)GlcNAc(b1-3)Gal(b1-4)GlcNAc(b1-3)Gal(b1-4)GlcNAc(b1-3)Gal(b1-4)GlcNAc(b1-3)Gal(b1-4)GlcNAc(b1-3)Gal(b1-4)GlcNAc(b1-2)Man(a1-6)]Man(b1-4)GlcNAc(b1-4)GlcNAc
# Procedure, shortened: as §1
# [8] = biological target: Gal(b1-4)GlcNAc(b1-3)Gal(b1-4)GlcNAc(b1-3)GalNAc
# Procedure, shortened: as §1
# [9] = biological target: Gal(b1-4)GlcNAc(b1-3)Gal(b1-4)GlcNAc(b1-3)[Gal(b1-4)GlcNAc(b1-3)Gal(b1-4)GlcNAc(b1-6)]GalNAc
# Procedure, shortened: as §1
# [10] = biological target: Gal(b1-4)GlcNAc(b1-3)Gal(b1-4)GlcNAc(b1-6)[Gal(b1-3)]GalNAc
# Procedure, shortened: as §1
# [11] = biological target: Gal(b1-4)GlcNAc(b1-3)Gal(b1-4)[Fuc(a1-3)]GlcNAc(b1-3)Gal(b1-4)[Fuc(a1-3)]GlcNAc
# Procedure, shortened: as §1
# [12] = biological target: Gal(b1-4)GlcNAc(b1-3)GalNAc
# Procedure, shortened: as §1
# [13] = biological target: Gal(b1-4)GlcNAc(b1-3)[Fuc(a1-3)GlcNAc(b1-6)]Gal(b1-4)Glc
# Procedure, shortened: as §1
# [14] = biological target: Gal(b1-4)GlcNAc(b1-3)[Gal(b1-4)GlcNAc(b1-6)]Gal(b1-4)GlcNAc
# Procedure, shortened: as §1
# [15] = biological target: Gal(b1-4)GlcNAc(b1-3)[GlcNAc(b1-6)]Gal(b1-4)GlcNAc
# Procedure, shortened: as §1
# [16] = biological target: Gal(b1-4)GlcNAc(b1-6)Gal(b1-4)GlcNAc
# Procedure, shortened: as §1
# [17] = biological target: Gal(b1-4)GlcNAc(b1-6)GalNAc
# Procedure, shortened: as §1
# [18] = biological target: Gal(b1-4)GlcNAc(b1-6)[Gal(b1-3)]GalNAc
# Procedure, shortened: as §1
# [19] = biological target: Gal(b1-4)GlcNAc(b1-6)[Gal(b1-4)GlcNAc(b1-3)]GalNAc
# Procedure, shortened: as §1
# [20] = biological target: Gal(b1-4)GlcNAc6P
# Procedure, shortened: as §1
# [21] = biological target: Gal(b1-6)Gal
# Procedure, shortened: as §1
# [22] = biological target: Gal3S(b1-3)GalNAc
# Procedure, shortened: as §1
# [23] = biological target: Gal3S(b1-3)GlcNAc
# Procedure, shortened: as §1
# [24] = biological target: Gal3S(b1-3)[Fuc(a1-4)]GlcNAc
# Procedure, shortened: as §1
# [25] = biological target: Gal3S(b1-4)Glc
# Procedure, shortened: as §1
# [26] = biological target: Gal3S(b1-4)Glc6S
# Procedure, shortened: as §1
# [27] = biological target: Gal3S(b1-4)GlcNAc
# Procedure, shortened: as §1
# [28] = biological target: Gal3S(b1-4)[Fuc(a1-3)]Glc6S
# Procedure, shortened: as §1
# [29] = biological target: Gal3S(b1-4)[Fuc(a1-3)]GlcNAc
# Procedure, shortened: as §1
# [30] = biological target: Gal3S(b1-4)[Fuc(a1-3)]GlcNAc6S
# Procedure, shortened: as §1
# [31] = biological target: Gal3S4S(b1-4)GlcNAc
# Procedure, shortened: as §1
# [32] = biological target: Gal3S6S(b1-4)GlcNAc
# Procedure, shortened: as §1
# [33] = biological target: Gal3S6S(b1-4)GlcNAc6S
# Procedure, shortened: as §1
# [34] = biological target: Gal4S(b1-4)GlcNAc
# Procedure, shortened: as §1
# [35] = biological target: Gal4S6S(b1-4)GlcNAc
# Procedure, shortened: as §1
# [36] = biological target: Gal6P(b1-4)GlcNAc
# Procedure, shortened: as §1
# [37] = biological target: Gal6S(b1-3)GlcNAc
# Procedure, shortened: as §1
# [38] = biological target: Gal6S(b1-3)GlcNAc6S
# Procedure, shortened: as §1
binder,measurement,setting,value
SP15308B-bot-339-22-339 (Bacteroides ovatus) (protein) NEWEDEQYEQYVSFKAPIASGSDGVTTIYVRYKDNGKVTYQLPIIVSGSTVNSQDRDIHIAVDKDTLKTLNIERFSLYRPELWYTEMEEDKYEFPETVHIPAGSCVELLNIDFNLQDIDMLEKWVLPLTIVDDGSYAYQSHPRKNYAKALLKVVPFNNYSGSYTASSMKVYTYINGKPDTNARTTDKRTGYVVDNNSIFFYAGLINEDMDKDMRKKYKINVHFKEDGTLDMKQDDPSNEMEFELIGTPTYSSTSVMDATRPYLERRYVQIMFEYDFQDFTYGGSGTEVIPIKYRVAGSMTLLRNINTQIPDEDQQIEW,glycan array binding signal (z-score),[1],0.148
same,glycan array binding signal (z-score),[2],7.12
same,glycan array binding signal (z-score),[3],0.702
same,glycan array binding signal (z-score),[4],1.84
same,glycan array binding signal (z-score),[5],0.658
same,glycan array binding signal (z-score),[6],1.18
same,glycan array binding signal (z-score),[7],6.94
same,glycan array binding signal (z-score),[8],-0.072
same,glycan array binding signal (z-score),[9],-0.044
same,glycan array binding signal (z-score),[10],-0.395
same,glycan array binding signal (z-score),[11],0.072
same,glycan array binding signal (z-score),[12],-0.478
same,glycan array binding signal (z-score),[13],-0.155
same,glycan array binding signal (z-score),[14],0.895
same,glycan array binding signal (z-score),[15],-0.399
same,glycan array binding signal (z-score),[16],-0.174
same,glycan array binding signal (z-score),[17],0.182
same,glycan array binding signal (z-score),[18],-0.244
same,glycan array binding signal (z-score),[19],0.103
same,glycan array binding signal (z-score),[20],-0.318
same,glycan array binding signal (z-score),[21],-0.445
same,glycan array binding signal (z-score),[22],0.048
same,glycan array binding signal (z-score),[23],-0.126
same,glycan array binding signal (z-score),[24],-0.449
same,glycan array binding signal (z-score),[25],-0.637
same,glycan array binding signal (z-score),[26],-0.337
same,glycan array binding signal (z-score),[27],-0.025
same,glycan array binding signal (z-score),[28],1.68
same,glycan array binding signal (z-score),[29],-0.085
same,glycan array binding signal (z-score),[30],-0.291
same,glycan array binding signal (z-score),[31],-0.191
same,glycan array binding signal (z-score),[32],-0.253
same,glycan array binding signal (z-score),[33],-0.44
same,glycan array binding signal (z-score),[34],-0.448
same,glycan array binding signal (z-score),[35],-0.307
same,glycan array binding signal (z-score),[36],-0.032
same,glycan array binding signal (z-score),[37],0.638
same,glycan array binding signal (z-score),[38],0.147

# Some of the entries so far, as tab-separated lines.
binder	measurement	setting	value
SP15308B-bot-339-22-339 (Bacteroides ovatus) (protein) NEWEDEQYEQYVSFKAPIASGSDGVTTIYVRYKDNGKVTYQLPIIVSGSTVNSQDRDIHIAVDKDTLKTLNIERFSLYRPELWYTEMEEDKYEFPETVHIPAGSCVELLNIDFNLQDIDMLEKWVLPLTIVDDGSYAYQSHPRKNYAKALLKVVPFNNYSGSYTASSMKVYTYINGKPDTNARTTDKRTGYVVDNNSIFFYAGLINEDMDKDMRKKYKINVHFKEDGTLDMKQDDPSNEMEFELIGTPTYSSTSVMDATRPYLERRYVQIMFEYDFQDFTYGGSGTEVIPIKYRVAGSMTLLRNINTQIPDEDQQIEW	glycan array binding signal (z-score)	[8]	-0.072
same	glycan array binding signal (z-score)	[9]	-0.044

# From the supplement of paper PMC8728848
